# Data from PubChem BioAssay AID445 (National Center for Advancing Translational Sciences (NCATS), 2006).
# The list shows a part of the results. Shown are side measurements of this screen, not its main read-out; they come without a call. The list favours compounds with an active or inconclusive main result. Words in brackets tell the shape of the fitted curve; partial curves, single points and poor fits give uncertain potencies.
# Test: IkB Signaling
# Conditions: ABC-DLBCL IkBa-CBG/CBR dual luciferase ratio (green luciferase fused to IkBa over red control in OCI-Ly3 lymphoma cells), 4 h
# Procedure, shortened: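 In this assay, an IκBα–CBG68 fusion accumulates when IKK-driven degradation is blocked; native CBR normalizes for cell number. OCI-Ly3 cells were treated 4 h with compound and doxycycline, then green and red light read after Chroma-Glo addition.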
# [1] = measured here: control luc red channel unless noted
# [2] = measured here: IkB-luc green channel
# [3] = measured here: control luc red channel
smiles,measurement,setting,value
COc1ccc(C(=O)NCC(c2ccc3c(c2)OCO3)N2CCN(C)CC2)cc1OC (centres undefined),AC50,[1],"31.6 µM [rising, single point] [measured here: IkB-luc green channel]"
Cc1cc(NC(=O)CN2CCC(O)CC2)nc2c1c(=O)oc1ccccc12,AC50,[1],"20 µM [falling, partial curve]"
COCCCNc1ncnc2nc[nH]c12,AC50,[1],"2 µM [falling, full curve]"
CCN1CCN(c2ncnc3c2cnn3-c2ccc(F)cc2)CC1,AC50,[1],"39.8 µM [falling, single point]"
O=C(Nn1c(-c2ccccc2)nc2ccccc2c1=O)c1ccco1,AC50,[1],"12.6 µM [falling, partial curve]"
Cc1cccc(NC(=O)CSc2nc(C)c(Cc3ccccc3)c(=O)[nH]2)c1C,AC50,[1],"20 µM [falling, partial curve]"
Cc1ccc(CNC(=O)c2cc(Sc3ccc(F)cc3F)nc3ccccc23)cc1,AC50,[1],"2.51 µM [falling, full curve, poor fit]"
CCC(C(=O)N(C)Cc1ccccc1)n1nc(C)c2sc3ccccc3c2c1=O (centres undefined),AC50,[1],"25.1 µM [falling, partial curve]"
CN(C)c1ccc(-c2noc(-c3ccccc3O)n2)cc1,AC50,[1],"0.00794 µM [falling, full curve]"
O=C(CSc1nncc2ccccc12)N1CCOCC1,AC50,[1],"25.1 µM [falling, single point]"
CCOC(=O)N1CCN(S(=O)(=O)N2CCCC(C(=O)NCc3ccccc3OC)C2)CC1 (centres undefined),AC50,[1],"12.6 µM [falling, partial curve, poor fit]"
Cc1ccc2ccc3cc(C(=O)Nc4ccc(C)c(F)c4)nc3c2[nH]1,AC50,[1],"0.0251 µM [falling, full curve, poor fit]"
CCOC(=O)c1ccc(CN(Cc2ccc(F)cc2)S(=O)(=O)c2cc(C(=O)Nc3ccccc3CC)ccc2F)cc1,AC50,[1],"3.98 µM [falling, full curve, poor fit]"
CSc1ccc(/C=C/c2nc3ccccc3n2S(=O)(=O)c2ccc(F)c(C)c2)cc1,AC50,[1],"3.16 µM [falling, partial curve]"
CCOc1ccc(NC(=O)CC2C(=O)N(c3cccc(C)c3)C(=O)N2CCC2=CCCCC2)cc1 (centres undefined),AC50,[1],"20 µM [falling, single point]"
CCc1ccc(CN(Cc2ccco2)C(=O)c2ccc(C)cc2)cc1,AC50,[1],"25.1 µM [falling, single point]"
COc1ccccc1-c1cc(C(=O)NCc2ccc(Cl)cc2)no1,AC50,[1],"7.94 µM [falling, partial curve]"
CCNc1nc(NC(C)C)nc(N(C#N)Cc2ccccc2)n1,AC50,[2],"15.8 µM [falling, partial curve]"
same,AC50,[3],"39.8 µM [falling, single point]"
CC(=O)Nc1ccccc1-c1nc2ccccc2n(C(C)C(=O)Nc2cccc(C)c2C)c1=O (centres undefined),AC50,[1],"0.126 µM [rising, full curve]"
CC(=O)N(Cc1cccnc1)c1nc2cc(C)cc(C)c2s1,AC50,[1],"3.16 µM [rising, partial curve, poor fit]"
O=S(=O)(c1ccc(Cl)cc1)c1nnn2c1nc(NCc1ccccc1)c1sccc12,AC50,[1],"3.16 µM [falling, single point]"
CCc1ccc(C(=O)c2cn(CC(=O)Nc3cccc(C)c3C)c3nc(C)ccc3c2=O)cc1,AC50,[1],"3.98 µM [rising, single point] [measured here: IkB-luc green channel]"
CCOC(=O)N1CCc2c(sc(NC(=O)c3ccc(Cl)s3)c2C(N)=O)C1,AC50,[2],"31.6 µM [falling, single point]"
same,AC50,[3],"2 µM [falling, full curve]"
COc1ccccc1C(=O)N(Cc1ccco1)Cc1ccccc1F,AC50,[1],"31.6 µM [falling, single point]"
COc1ccc(N2CCN(C(=O)CCc3c(C)nc4cc(-c5cccc(F)c5)nn4c3C)CC2)cc1,AC50,[1],"1 µM [falling, full curve]"
Cc1ccccc1C(=O)N1CCCCC1CCN1CCCCC1 (centres undefined),AC50,[1],"0.0631 µM [falling, single point]"
Cc1csc(NC(=O)c2cccc(S(=O)(=O)N3CCCCC3)c2)n1,AC50,[1],"20 µM [falling, partial curve]"
Cc1ccc(/C=C/c2nc3ccccc3n2S(=O)(=O)c2ccc(Br)cc2)cc1,AC50,[1],"0.316 µM [falling, partial curve]"
CC(=O)N1CCc2c(sc3c2c(=O)n(-c2ccccc2)c(=O)n3Cc2cccc(C(F)(F)F)c2)C1,AC50,[1],"31.6 µM [falling, partial curve]"
Cc1sc2ncnc(Sc3nnnn3-c3ccccc3)c2c1C,AC50,[1],"12.6 µM [falling, partial curve]"
COc1cccc(N=C2SC(C(=O)Nc3cccc(Cl)c3)CC(=O)N2C)c1 (centres undefined),AC50,[1],"25.1 µM [falling, partial curve]"
Cc1cccc(-n2c(=O)[nH]c3c(C(N)=O)nc(-c4ccccc4Cl)nc32)c1,AC50,[1],"7.94 µM [falling, partial curve]"
Cc1cccc(N2CCN(C(=O)CCCn3ncn4c(cc5occc54)c3=O)CC2)c1C,AC50,[1],"25.1 µM [falling, partial curve]"
CCOc1cc(CNCCSc2nnnn2C)cc(Cl)c1OCc1ccc(Cl)cc1,AC50,[1],"15.8 µM [falling, partial curve]"
O=C(NCC(c1cccnc1)N1CCc2ccccc2C1)C(=O)Nc1cccc(Cl)c1 (centres undefined),AC50,[1],"0.0794 µM [rising, full curve]"
COc1ccc(-c2cc(C(=O)NCCc3ccccc3)c3c(-c4ccccc4)[nH]nc3n2)cc1,AC50,[1],"3.98 µM [falling, full curve]"
Cc1ccc(Nc2nc3nonc3[nH]c2=O)cc1C,AC50,[1],"12.6 µM [falling, partial curve]"
COc1ccc(Br)cc1C1CC(=O)N2CN(Cc3ccccc3)CSC2=C1C#N (centres undefined),AC50,[1],"10 µM [falling, partial curve]"
O=C(Cn1ncc2c(=O)oc3ccccc3c21)NCC1COc2ccccc2O1 (centres undefined),AC50,[1],"3.16 µM [falling, partial curve]"
COc1ccc(-c2nnc3sc(-c4ccco4)nn23)cc1OC,AC50,[1],"39.8 µM [rising, single point] [measured here: IkB-luc green channel]"
O=C(CSC1=Nc2ccccc2N=C(c2ccc(F)cc2)C1)NCc1ccc(Cl)cc1,AC50,[1],"10 µM [falling, partial curve]"
Cc1cc(S(=O)(=O)NCC(c2ccc(N(C)C)cc2)N2CCOCC2)ccc1F (centres undefined),AC50,[1],"15.8 µM [falling, partial curve, poor fit]"
CCn1nc(C)c2c(-c3ccccc3)cc(=O)n(C(C)C(=O)NCc3ccc(C)cc3)c21 (centres undefined),AC50,[1],"3.98 µM [falling, single point]"
CC(=O)c1ccc(NC(=O)c2nc3ccccc3n(C)c2=O)cc1,AC50,[1],"3.98 µM [rising, single point]"
Cc1ccc(CN(C(=O)COc2ccc(Cl)cc2Cl)C2CCS(=O)(=O)C2)o1 (centres undefined),AC50,[1],"15.8 µM [falling, partial curve]"
O=c1cnc2cncnc2n1Cc1ccc(F)cc1,AC50,[1],"5.01 µM [rising, partial curve] [measured here: IkB-luc green channel]"
CC(C)(C)c1ccccc1OCCCCCNCCO,AC50,[1],"12.6 µM [falling, partial curve]"
Cc1ccc(C)c(Nc2nc3nonc3nc2Nc2cccc(C)c2C)c1,AC50,[1],"7.94 µM [falling, full curve]"
O=C(C1CCN(S(=O)(=O)Cc2ccccc2)CC1)N1CCN(c2ccccc2F)CC1,AC50,[1],"39.8 µM [falling, single point]"
Cc1cccc(Cn2cc(C(=O)Nc3ccc(S(N)(=O)=O)cc3)ccc2=O)c1,AC50,[1],"3.16 µM [rising, single point]"
CCOC(=O)c1[nH]c(C)c(C(=O)Nc2ccc(Cl)cc2)c1C,AC50,[2],"5.01 µM [rising, full curve]"
same,AC50,[3],"10 µM [rising, partial curve]"
COc1cc2nc(Nc3ccc(F)cc3)nc(N)c2cc1OC,AC50,[1],"15.8 µM [falling, partial curve]"
COC(=O)c1ccc(Cn2nnc3sc4c(c3c2=O)CCCC4)cc1,AC50,[1],"3.16 µM [falling, partial curve]"
CCOC(=O)c1cccc(NC(=O)C(Cc2ccccc2)NS(=O)(=O)c2cccc3nsnc23)c1 (centres undefined),AC50,[1],"12.6 µM [falling, partial curve]"
C/C=C/C=C/C=O,AC50,[1],"12.6 µM [rising, full curve, poor fit] [measured here: IkB-luc green channel]"
COc1ccc(N(C(=O)COc2ccccc2OC)S(=O)(=O)c2ccc(Cl)cc2)cc1,AC50,[1],"20 µM [falling, partial curve]"
O=C(c1ccccc1)n1nc(-c2ccco2)nc1NCc1ccccc1Cl,AC50,[1],"10 µM [falling, partial curve]"
c1c2c(cc3sc(N4CCCCC4)nc13)OCO2,AC50,[1],"3.98 µM [falling, partial curve]"
Cc1nc2sc(C(c3cccs3)N3CCN(C(=O)c4ccco4)CC3)c(O)n2n1 (centres undefined),AC50,[1],"12.6 µM [rising, single point] [measured here: IkB-luc green channel]"
O=C(Nc1cccc(C(F)(F)F)c1)Nc1nnc(N2CCCCC2)s1,AC50,[1],"12.6 µM [falling, partial curve]"
COc1ccc(S(=O)(=O)Nc2cccc(-c3ccc(N4CCCC4)nn3)c2)cc1OC,AC50,[1],"10 µM [falling, partial curve, poor fit]"

# Given bar-delimited: entries from further up
smiles | measurement | setting | value
CCC(C(=O)N(C)Cc1ccccc1)n1nc(C)c2sc3ccccc3c2c1=O (centres undefined) | AC50 | [1] | 25.1 µM [falling, partial curve]
CN(C)c1ccc(-c2noc(-c3ccccc3O)n2)cc1 | AC50 | [1] | 0.00794 µM [falling, full curve]
O=C(CSc1nncc2ccccc12)N1CCOCC1 | AC50 | [1] | 25.1 µM [falling, single point]
